Measurements from patent publication US20250228857A1, “BIOSENSOR AND USES THEREOF” (The Johns Hopkins University, priority 2022, published 2025).
For at least one compound, name, drawing or mass did not settle the structure.

By UniProt entry, the sequences of proteins in these tests, tags left out.
UniProt P15791, whole entry: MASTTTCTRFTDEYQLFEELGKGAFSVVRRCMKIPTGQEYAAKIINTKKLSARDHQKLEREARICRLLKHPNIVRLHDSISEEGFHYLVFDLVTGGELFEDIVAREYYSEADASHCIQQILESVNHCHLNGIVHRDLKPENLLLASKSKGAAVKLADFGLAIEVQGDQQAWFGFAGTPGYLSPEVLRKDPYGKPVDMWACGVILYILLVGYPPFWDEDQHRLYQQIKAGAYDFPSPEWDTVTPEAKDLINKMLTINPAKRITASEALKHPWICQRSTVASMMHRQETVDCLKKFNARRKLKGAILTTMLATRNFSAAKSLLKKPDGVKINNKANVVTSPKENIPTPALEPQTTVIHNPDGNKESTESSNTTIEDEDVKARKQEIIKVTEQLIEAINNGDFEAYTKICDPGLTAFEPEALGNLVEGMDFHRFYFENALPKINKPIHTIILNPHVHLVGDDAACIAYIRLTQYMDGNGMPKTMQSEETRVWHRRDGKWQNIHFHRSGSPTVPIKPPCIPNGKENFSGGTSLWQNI

Target: T1, CaMKII (Rattus norvegicus, UniProt P15791)
T1 construct: endogenous in cells; host or cells: neonatal rat ventricular myocytes (Sprague-Dawley)
Assay: Pacing-induced CaMKII activity in CaMKAR-expressing neonatal rat ventricular myocytes (NRVMs)
Format: cell-based
Details: 3 Hz pacing; ruxolitinib 1.51 μM, crenolanib 478 nM, abemaciclib 243 nM, baricitinib 58 nM, silmitasertib 3.42 μM

SMILES: N#CC[C@H](C1CCCC1)n1cc(-c2ncnc3[nH]ccc23)cn1 [ruxolitinib]
- inhibition of pacing-induced CaMKII activity at maximal human plasma concentration: sustained inhibition
